# Data as given in PMC6272893, “NO-Releasing Enmein-Type Diterpenoid Derivatives with Selective Antiproliferative Activity and Effects on Apoptosis-Related Proteins” (Molecules, 2016).
# Assay: Griess assay, NO-releasing ability
# Conditions: 100 μM compound, time point of 60 min
row,Compound,NO produced (Griess assay)
1,C=C1C(=O)C23C(=O)OC4CCC(C)(C)C5C(=O)OCC45C2CCC1C3OC(=O)c1ccccc1C(=O)OCCOc1no[n+]([O-])c1S(=O)(=O)c1ccccc1 (stereo not drawn) [Compound 10c],36.2 µmol/L
2,C=C1C(=O)C23C(=O)OC4CCC(C)(C)C5C(=O)OCC45C2CCC1C3OC(=O)CCC(=O)OCCOc1no[n+]([O-])c1S(=O)(=O)c1ccccc1 (stereo not drawn) [Compound 10a],22.2 µmol/L
3,C=C1C(=O)C23C(=O)OC4CCC(C)(C)C5C(=O)OCC45C2CCC1C3OC(=O)c1ccccc1C(=O)OCCCOc1no[n+]([O-])c1S(=O)(=O)c1ccccc1 (stereo not drawn) [Compound 10f],33.7 µmol/L
